Test results published in PubChem BioAssay AID493014 (National Center for Advancing Translational Sciences (NCATS), 2011).
The campaign covered roughly 340,000 compounds. About 170 (0.05%) were called active. The shares of active, inactive and inconclusive entries below differ from those in the screen. Calls come from the whole dose curve; as a rule, active = well fitted inhibition curve with a large enough effect in the signal ratio, with a control signal flat (not every such curve was filed as active); inconclusive = small, poorly fitted or top-dose-only effect, or effect the other way, or a change in a side signal; inactive = flat fitted curve, though single readings scatter; the % refers to the signal ratio. Where the call is inconclusive, the potency comes from a doubtful curve fit.

Assay: qHTS Assay to Find Inhibitors of Chronic Active B-Cell Receptor Signaling;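 for activity change, negative = inhibition: plate controls were basal doxycycline-induced cells for no effect and cells given 10 µM MG132 for full effect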
Conditions: ABC-DLBCL IkBa-CBG/CBR reporter, luminescence ratio (green luciferase fused to IkBa over red control in TMD8 lymphoma cells), 4 h; activity change, negative = inhibition: at 46.1 µM (top of the series) unless noted
Method in brief: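 Cell line TMD8 (human ABC DLBCL), stably expressing tet-inducible CBG68-IkBa fusion and CBR; IMDM/0.5% FBS; cpd up to 46 uM; dox induction, 4 h, 37C/5% CO2; dual luminescence; green/red ratio; MG132 control.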
Potency is the fitted concentration of half-maximal effect.

Q: With `CC(C)(C)c1ccc(S(=O)(=O)N2CCN(CCC#N)CC2)cc1` as the compound, how does the “activity change, negative = inhibition” value read?
A: inactive: 5.89%

Q: With `Cc1ccccc1-n1c(-c2ccoc2C)n[nH]c1=S` as the compound, how does the “activity change, negative = inhibition” value read?
A: inactive: -1.24%

Q: With `O=C1COc2ccc(C(=O)COC(=O)c3ccccn3)cc2N1` as the compound, how does the “activity change, negative = inhibition” value read?
A: inactive: -0.872%

Q: For `Cc1cc(NC(=O)COC(=O)C2CCN(S(=O)(=O)c3c(Cl)cccc3Cl)CC2)no1`, which Potency is on record?
A: inconclusive: 1.84 µM [rising, partial curve, poor fit]

Q: With `FC(F)(F)c1cnc(NNC(=S)Nc2ccc(Cl)cc2)c(Cl)c1` as the compound, how does the “activity change, negative = inhibition” value read?
A: inactive: 6.61%

Q: With `COc1ccc(C(OCC(O)CNCCc2ccccc2)c2ccc(OC)cc2)cc1` (stereo unspecified) as the compound, how does the activity change, negative = inhibition read?
A: inconclusive: -10.2%

Q: Which “activity change, negative = inhibition” value does the source give for `O=C(CCN1CCOCC1)N1CCCC(Nc2cccc(F)c2)C1` (stereo unspecified) here?
A: inactive: 0.376%

Q: For `Cc1cc(C)c(N)cc1C`, which activity change, negative = inhibition is on record?
A: inconclusive: -5.21%

Q: Which activity change, negative = inhibition does the source give for `C[C@H](N=C1NS(=O)(=O)c2ccccc21)C(=O)OCc1cc([N+](=O)[O-])cc2c1OCOC2` here?
A: inconclusive: -26.9%

Q: With `O=C(C[n+]1cn(C(F)F)c2ccccc21)c1ccc(OC(F)F)cc1` as the compound, how does the activity change, negative = inhibition read?
A: inconclusive: -15.1%

Q: For `COc1ccc(C[C@H]2CN3C(=NC[C@H]3Cc3ccccc3)N2CCNC(=O)CCC2CCCCC2)cc1`, which activity change, negative = inhibition is on record?
A: inconclusive: -5.31%

Q: With `OCc1nc2ccccc2n1Cc1c(F)cccc1Cl` as the compound, how does the “activity change, negative = inhibition” value read?
A: inactive: -5.58%

Q: Which activity change, negative = inhibition does the source give for `CCc1c(C)nc(SCC(=O)c2cccs2)c(C#N)c1C` here?
A: inconclusive: -25.6%

Q: Which activity change, negative = inhibition does the source give for `COc1ccc(N(CN2C(=O)C3C4C=CC(C4)C3C2=O)C(=O)c2ccco2)cc1` (stereo unspecified) here?
A: inconclusive: 3.99%

Q: With `O=C(NCCNc1ccccc1[N+](=O)[O-])c1ccccc1F` as the compound, how does the Potency read?
A: inconclusive: 22.4 µM [falling, single point]

Q: For `O=C(Nc1nc(-c2ccc(Cl)cc2)cs1)NC1CCCCC1`, which Potency is on record?
A: inconclusive: 14.6 µM [rising, partial curve, poor fit]

Q: Which activity change, negative = inhibition does the source give for `O=c1[nH]c2ccccc2n1CCCSc1cnc2ccccc2n1` here?
A: inconclusive: -16.9%

Q: For `O=C(CSc1nc2ccccc2c(=O)n1-c1ccc(F)cc1)NC1CCS(=O)(=O)C1` (stereo unspecified), which activity change, negative = inhibition is on record?
A: inconclusive: 4.08%

Q: With `CNC(=S)/N=C/NOCc1ccc(Cl)cc1Cl` as the compound, how does the “activity change, negative = inhibition” value read?
A: inactive: 11%

Q: For `CCN1C(=O)c2cccc3c(N)ccc1c23`, which activity change, negative = inhibition is on record?
A: inconclusive: 5.2%

Q: With `CC1CCc2nc3ccccc3c(C(=O)OCC(=O)NC3CCS(=O)(=O)C3)c2C1` (stereo unspecified) as the compound, how does the “activity change, negative = inhibition” value read?
A: inactive: 0.119%

Q: For `CC1(C)Cc2c(sc(NC(=S)NC(=O)c3ccccc3)c2C(=O)O)CO1`, which activity change, negative = inhibition is on record?
A: inconclusive: -8.47%

Q: For `Cc1ccc(NS(=O)(=O)c2c(C)nc3sccn3c2=O)cc1C`, which “activity change, negative = inhibition” value is on record?
A: inactive: -25.9%

Q: For `COc1ccc(OC(=O)c2cnn(-c3ccccc3)c2C)cc1`, which Potency is on record?
A: inconclusive: 2.91 µM [rising, partial curve]

Q: With `O=S1(=O)CCC(NC2CCCC2)C1` (stereo unspecified) as the compound, how does the activity change, negative = inhibition read?
A: inconclusive: 4.34%

Q: With `COc1cc(OC)c(CNC2CCCCCC2)cc1Br` as the compound, how does the Potency read?
A: inconclusive: 15.8 µM [falling, single point]

Q: For `Cc1ccc(NC(=O)Nc2sc(=S)n(C)c2C)cc1`, which activity change, negative = inhibition is on record?
A: inconclusive: 26.8%

Q: For `CC(=O)Nc1ccc(-c2csc(-c3cccnc3)n2)cc1`, which activity change, negative = inhibition is on record?
A: inconclusive: -0.462%

Q: With `Cc1ccc(Nc2nc(NCCO)c3ccccc3n2)cc1C` as the compound, how does the “activity change, negative = inhibition” value read?
A: inactive: 9.1%

Q: For `CCOc1ccc2nc(NC(=O)CSc3nc(SC)ns3)sc2c1`, which activity change, negative = inhibition is on record?
A: inconclusive: 12.2%

Q: With `NC(=S)NNc1cccc2cccnc12` as the compound, how does the “activity change, negative = inhibition” value read?
A: inactive: 17.6%

Q: Which activity change, negative = inhibition does the source give for `Cn1c(SCC(=O)Nc2ccc3cn[nH]c3c2)nnc1-c1cnccn1` here?
A: inconclusive: -16.4%

Q: Which “activity change, negative = inhibition” value does the source give for `CC(c1ccccc1)N1C(=O)c2ccc(C(=O)Nc3ccccc3C(=O)O)cc2C1=O` (stereo unspecified) here?
A: inactive: 7.9%

Q: For `COc1ccc(C(=O)NCc2ccc3c(c2)OCO3)cc1S(=O)(=O)N(C)Cc1ccccc1`, which Potency is on record?
A: inconclusive: 0.00517 µM [falling, full curve, poor fit]

Q: Which “activity change, negative = inhibition” value does the source give for `O=C(Nc1cccc2ncccc12)c1ccc(Br)c([N+](=O)[O-])c1` here?
A: inactive: -7.16%

Q: Which “activity change, negative = inhibition” value does the source give for `Cc1ccc(CNC(=O)CO/N=C/c2ccc3c(c2)OCO3)cc1` here?
A: inactive: -4.63%

Q: For `CN1CCN(c2nc3c(c(=O)n(C)c(=O)n3C)n2Cc2ccccc2)CC1`, which activity change, negative = inhibition is on record?
A: inconclusive: 6.08%

Q: With `Nc1nc(N)nc(-c2ccccc2O)n1` as the compound, how does the activity change, negative = inhibition read?
A: inconclusive: -0.231%

Q: Which activity change, negative = inhibition does the source give for `O=[N+]([O-])c1cc(-c2n(-c3ccccn3)c3ccccc3[n+]2-c2ccccn2)ccc1Cl` here?
A: inconclusive: 0.812%

Q: With `CN(C1CCCCC1)S(=O)(=O)c1ccc(NC(=O)C2CCCCC2C(=O)O)cc1` (stereo unspecified) as the compound, how does the “activity change, negative = inhibition” value read?
A: inactive: 1.06%

Q: Which Potency does the source give for `COc1ccc(C2=Nn3c(nnc3-c3cccnc3)SC2)cc1` here?
A: inconclusive: 2.91 µM [falling, full curve]

Q: For `COc1ccccc1/C=C/C(=O)Nc1ccc2c(c1)CCC2`, which Potency is on record?
A: inconclusive: 20.6 µM [falling, partial curve]

Q: Which Potency does the source give for `CCn1c(C)nc2cc(C(=O)NNC(=S)Nc3ccccc3Cl)ccc21` here?
A: inconclusive: 16.4 µM [falling, single point]

Q: Which Potency does the source give for `COc1ccc(C2=CC(c3ccc(Cl)cc3)n3cnnc3N2)cc1OC` (stereo unspecified) here?
A: inconclusive: 35.5 µM [falling, single point]

Q: With `Cc1cc(=O)[nH]c2nnc(SCc3ccc(Cl)cc3)n12` as the compound, how does the Potency read?
A: inconclusive: 11.2 µM [rising, partial curve, poor fit]

Q: For `Cc1cccc(OCCC(=O)NNC(=O)Cn2nc(C)cc2C)c1`, which activity change, negative = inhibition is on record?
A: inconclusive: 1.06%

Q: For `CC(C)On1c(SCC(=O)N(C)C)nc2ccccc2c1=O`, which “activity change, negative = inhibition” value is on record?
A: inactive: -2.44%

Q: For `O=C(Nc1ccc(Cl)c(C(F)(F)F)c1)N1CCCC(O)C1` (stereo unspecified), which “activity change, negative = inhibition” value is on record?
A: inactive: -0.394%

Q: With `CN(C)C(CNC(=O)CCCN1C(=O)c2cccc3cccc(c23)C1=O)c1ccccc1` (stereo unspecified) as the compound, how does the Potency read?
A: inconclusive: 12.6 µM [rising, partial curve, poor fit]

Q: For `O=C1c2ccccc2S(=O)(=O)N1CCOc1ccc(F)cc1`, which activity change, negative = inhibition is on record?
A: inconclusive: -2.87%

Q: With `Cc1ccc(C)c(C(=O)COC(=O)CCCC(=O)Nc2cc(C(F)(F)F)ccc2Cl)c1` as the compound, how does the activity change, negative = inhibition read?
A: inconclusive: 2.65%

Q: For `N#Cc1c(Cl)nc(N/N=C/c2ccccc2)c(Cl)c1Cl`, which activity change, negative = inhibition is on record?
A: inconclusive: -1.52%

Q: For `c1cc(SSc2ccncc2)ccn1`, which activity change, negative = inhibition is on record?
A: inconclusive: 2.46%

Q: Which activity change, negative = inhibition does the source give for `CN(C)c1ccc(/C=N/n2c(COc3ccccc3)n[nH]c2=S)cc1` here?
A: inconclusive: -4.1%

Q: Which activity change, negative = inhibition does the source give for `Cc1ccc(N2C(=O)CC(Sc3ccccc3C(=O)O)C2=O)cc1C` (stereo unspecified) here?
A: inconclusive: -0.406%

Q: Which “activity change, negative = inhibition” value does the source give for `O=C(NCC1CCCN1S(=O)(=O)c1cccs1)c1c(F)cccc1F` (stereo unspecified) here?
A: inactive: -1.62%
